According to patent US8138119B2, “Alkoxyalkyl spirocyclic tetramic acids and tetronic acids” (Bayer Cropscience AG, priority 2005, dated 2012):
Some results were stated once for a whole list of compounds, not compound by compound.

Assays:
Assay type in all cases: in vivo
[1] = system: larvae of the mustard beetle (Phaedon cochleariae); test: Phaedon test (PHAECO spray treatment); details: 500 g/ha of a.i., after 7 d, Chinese cabbage disks sprayed
[2] = system: green peach aphid (Myzus persicae); test: Myzus test (MYZUPE spray treatment); details: 500 g/ha of a.i., after 5 d, Chinese cabbage disks sprayed
[3] = system: green peach aphid (Myzus persicae); test: Myzus persicae test; systemic treatment (MYZUPE SYS); details: 20 ppm in water, pea plant
[4] = system: cotton aphid (Aphis gossypii); test: Aphis gossypii test (APHIGO); details: 100 ppm, cotton leaves dipped
Lolium multiflorum [5] = test: Herbicidal pre-emergence action; details: 320 g/ha of a.i., 3 weeks
Setaria viridis [6] = test: Herbicidal pre-emergence action; details: 320 g/ha of a.i., 3 weeks
Avena sativa = test: Herbicidal post-emergence action; details: 320 g/ha of a.i., about 3 weeks
Lolium multiflorum [7] = test: Herbicidal post-emergence action; details: 320 g/ha of a.i., about 3 weeks
Setaria viridis [8] = test: Herbicidal post-emergence action; details: 320 g/ha of a.i., about 3 weeks
Echinochloa crusgalli = test: Herbicidal post-emergence action; details: 320 g/ha of a.i., about 3 weeks
[9] = system: caterpillars of the armyworm (Spodoptera frugiperda); test: Spodoptera frugiperda test (SPODFR spray treatment); details: 500 g/ha of a.i., after 7 d, maize leaf disks sprayed
[10] = system: greenhouse rat spider mite (Tetranychus urticae); test: Tetranychus test; OP resistant (TETRUR spray treatment); details: 100 g/ha of a.i., after 5 d, bean leaf disks sprayed
[11] = system: greenhouse rat spider mite (Tetranychus urticae); test: Tetranychus test; OP resistant/systemic treatment (TETRUR SYS); details: 20 ppm, bean plants watered, systemic

CCc1cc(C)cc(Br)c1C1=C(O)C2(CCC(COC)CC2)NC1=O (single isomer, unassigned) [Example I-1-a-3]
≥ 80%: efficacy (beetle larvae killed) [1] | efficacy (aphids killed) [2] | efficacy (kill of aphids) [3] | efficacy (kill of aphids) [4] | herbicidal activity against Lolium multiflorum (Lolium multiflorum [5]) | herbicidal activity against Setaria viridis (Setaria viridis [6]) | herbicidal activity against Avena sativa (Avena sativa) | herbicidal activity against Lolium multiflorum (Lolium multiflorum [7]) | herbicidal activity against Setaria viridis (Setaria viridis [8]) | herbicidal activity against Echinochloa crusgalli (Echinochloa crusgalli)

CCc1cc(Cl)cc(OC)c1C1=C(O)C2(CCC(COC)CC2)NC1=O (single isomer, unassigned) [Example I-1-a-4]
≥ 80%: efficacy (beetle larvae killed) [1] | efficacy (kill of aphids) [3] | herbicidal activity against Lolium multiflorum (Lolium multiflorum [5]) | herbicidal activity against Setaria viridis (Setaria viridis [6]) | herbicidal activity against Avena sativa (Avena sativa) | herbicidal activity against Lolium multiflorum (Lolium multiflorum [7]) | herbicidal activity against Setaria viridis (Setaria viridis [8]) | herbicidal activity against Echinochloa crusgalli (Echinochloa crusgalli)

CCc1cc(C)cc(Br)c1C1=C(O)C2(CCCC(COC)C2)NC1=O (single isomer, unassigned) [Example I-1-a-8]
≥ 80%: efficacy (aphids killed) [2] | efficacy (kill of aphids) [3] | efficacy (kill of aphids) [4] | herbicidal activity against Lolium multiflorum (Lolium multiflorum [5]) | herbicidal activity against Setaria viridis (Setaria viridis [6]) | herbicidal activity against Avena sativa (Avena sativa) | herbicidal activity against Lolium multiflorum (Lolium multiflorum [7]) | herbicidal activity against Setaria viridis (Setaria viridis [8]) | herbicidal activity against Echinochloa crusgalli (Echinochloa crusgalli)

CCc1cc(Cl)cc(OC)c1C1=C(O)C2(CCCC(COC)C2)NC1=O (single isomer, unassigned) [Example I-1-a-9]
≥ 80%: efficacy (aphids killed) [2] | herbicidal activity against Lolium multiflorum (Lolium multiflorum [5]) | herbicidal activity against Setaria viridis (Setaria viridis [6]) | herbicidal activity against Avena sativa (Avena sativa) | herbicidal activity against Lolium multiflorum (Lolium multiflorum [7]) | herbicidal activity against Setaria viridis (Setaria viridis [8]) | herbicidal activity against Echinochloa crusgalli (Echinochloa crusgalli)

CCCOCC1CCCC2(C1)NC(=O)C(c1c(Br)cc(C)cc1CC)=C2O (single isomer, unassigned) [Example I-1-a-12]
≥ 80%: efficacy (aphids killed) [2] | efficacy (kill of aphids) [4] | herbicidal activity against Lolium multiflorum (Lolium multiflorum [5]) | herbicidal activity against Setaria viridis (Setaria viridis [6]) | herbicidal activity against Avena sativa (Avena sativa) | herbicidal activity against Lolium multiflorum (Lolium multiflorum [7]) | herbicidal activity against Setaria viridis (Setaria viridis [8]) | herbicidal activity against Echinochloa crusgalli (Echinochloa crusgalli)

CCCOCC1CCCC2(C1)NC(=O)C(c1c(C)cc(Br)cc1CC)=C2O (single isomer, unassigned) [Example I-1-a-13]
≥ 80%: efficacy (beetle larvae killed) [1] | efficacy (aphids killed) [2] | herbicidal activity against Lolium multiflorum (Lolium multiflorum [5]) | herbicidal activity against Setaria viridis (Setaria viridis [6])

CCc1cc(C)cc(Br)c1C1=C(OC(=O)COC)C2(CCC(COC)CC2)NC1=O (single isomer, unassigned) [Example I-1-b-2]
≥ 80%: herbicidal activity against Lolium multiflorum (Lolium multiflorum [5]) | herbicidal activity against Setaria viridis (Setaria viridis [6]) | herbicidal activity against Avena sativa (Avena sativa) | herbicidal activity against Lolium multiflorum (Lolium multiflorum [7]) | herbicidal activity against Setaria viridis (Setaria viridis [8]) | herbicidal activity against Echinochloa crusgalli (Echinochloa crusgalli)

CCc1cc(Cl)cc(OC)c1C1=C(OC(=O)C(C)C)C2(CCC(COC)CC2)NC1=O (single isomer, unassigned) [Example I-1-b-4]
≥ 80%: herbicidal activity against Lolium multiflorum (Lolium multiflorum [5]) | herbicidal activity against Setaria viridis (Setaria viridis [6])

CCc1cc(C)cc(Br)c1C1=C(OC(=O)C(C)C)C2(CCC(COC)CC2)NC1=O (single isomer, unassigned) [Example I-1-b-5]
≥ 80%: efficacy (aphids killed) [2] | herbicidal activity against Lolium multiflorum (Lolium multiflorum [5]) | herbicidal activity against Setaria viridis (Setaria viridis [6])

CCOC(=O)OC1=C(c2c(CC)cc(Cl)cc2OC)C(=O)NC12CCCC(COC)C2 (single isomer, unassigned) [Example I-1-c-3]
≥ 80%: herbicidal activity against Lolium multiflorum (Lolium multiflorum [5]) | herbicidal activity against Setaria viridis (Setaria viridis [6]) | herbicidal activity against Avena sativa (Avena sativa) | herbicidal activity against Lolium multiflorum (Lolium multiflorum [7]) | herbicidal activity against Setaria viridis (Setaria viridis [8]) | herbicidal activity against Echinochloa crusgalli (Echinochloa crusgalli)

CCCOCC1CCCC2(C1)NC(=O)C(c1c(C)cc(C)cc1C)=C2OC(=O)OCC (single isomer, unassigned) [Example I-1-c-4]
≥ 80%: efficacy (aphids killed) [2] | herbicidal activity against Lolium multiflorum (Lolium multiflorum [5]) | herbicidal activity against Setaria viridis (Setaria viridis [6])

CCCOCC1CCCC2(C1)NC(=O)C(c1c(Br)cc(C)cc1CC)=C2OC(=O)OCC (single isomer, unassigned) [Example I-1-c-5]
≥ 80%: efficacy (aphids killed) [2] | herbicidal activity against Lolium multiflorum (Lolium multiflorum [5]) | herbicidal activity against Setaria viridis (Setaria viridis [6])

CCOC(=O)OC1=C(c2c(Br)cc(C)cc2CC)C(=O)NC12CCC(COC)CC2 (single isomer, unassigned) [Example I-1-c-6]
≥ 80%: efficacy (beetle larvae killed) [1] | efficacy (aphids killed) [2] | efficacy (kill of aphids) [3] | efficacy (kill of aphids) [4] | herbicidal activity against Lolium multiflorum (Lolium multiflorum [5]) | herbicidal activity against Setaria viridis (Setaria viridis [6]) | herbicidal activity against Avena sativa (Avena sativa) | herbicidal activity against Lolium multiflorum (Lolium multiflorum [7]) | herbicidal activity against Setaria viridis (Setaria viridis [8]) | herbicidal activity against Echinochloa crusgalli (Echinochloa crusgalli)

CCOC(=O)OC1=C(c2c(CC)cc(Cl)cc2OC)C(=O)NC12CCC(COC)CC2 (single isomer, unassigned) [Example I-1-c-7]
≥ 80%: efficacy (beetle larvae killed) [1] | efficacy (aphids killed) [2] | efficacy (kill of aphids) [4] | herbicidal activity against Lolium multiflorum (Lolium multiflorum [5]) | herbicidal activity against Setaria viridis (Setaria viridis [6]) | herbicidal activity against Avena sativa (Avena sativa) | herbicidal activity against Lolium multiflorum (Lolium multiflorum [7]) | herbicidal activity against Setaria viridis (Setaria viridis [8]) | herbicidal activity against Echinochloa crusgalli (Echinochloa crusgalli)

CCOC(=O)OC1=C(c2cc(-c3ccc(Cl)cc3)ccc2C)C(=O)NC12CCC(COC)CC2 (single isomer, unassigned) [Example I-1-c-8]
≥ 80%: efficacy (beetle larvae killed) [1] | efficacy (aphids killed) [2] | efficacy (caterpillars killed) [9] | herbicidal activity against Lolium multiflorum (Lolium multiflorum [5]) | herbicidal activity against Setaria viridis (Setaria viridis [6]) | herbicidal activity against Avena sativa (Avena sativa) | herbicidal activity against Lolium multiflorum (Lolium multiflorum [7]) | herbicidal activity against Setaria viridis (Setaria viridis [8]) | herbicidal activity against Echinochloa crusgalli (Echinochloa crusgalli)

CCCOC[C@@H]1CCCC2(C1)NC(=O)C(c1c(C)cc(Br)cc1CC)=C2OC(=O)COC (stereo partly shown) [Example I-1-b-1]
≥ 80%: efficacy (aphids killed) [2] | efficacy (spider mites killed) [10]

CCOC(=O)OC1=C(c2cc(C)ccc2C)C(=O)NC12CCC(COC)CC2 (stereo not shown) [Example I-1-c-1]
≥ 80%: efficacy (beetle larvae killed) [1] | efficacy (aphids killed) [2] | efficacy (caterpillars killed) [9] | efficacy (kill of aphids) [4] | efficacy (spider mites killed) [11]

COCCC1CCC2(CC1)OC(=O)C(c1c(C)cc(C)cc1C)=C2O (stereo not shown) [Example I-2-a-1]
≥ 80%: efficacy (beetle larvae killed) [1] | efficacy (aphids killed) [2] | efficacy (caterpillars killed) [9] | efficacy (spider mites killed) [10]

COCCC1CCC2(CC1)OC(=O)C(c1c(C)cc(C)cc1C)=C2OC(=O)C(C)C (stereo not shown) [Example I-2-b-1]
≥ 80%: efficacy (beetle larvae killed) [1] | efficacy (aphids killed) [2] | efficacy (caterpillars killed) [9] | efficacy (spider mites killed) [10]
